Assay results: publication PMC9312491

Biological target: T1, HA-APE2 (UniProt Q9UBZ4)
T1 sequence: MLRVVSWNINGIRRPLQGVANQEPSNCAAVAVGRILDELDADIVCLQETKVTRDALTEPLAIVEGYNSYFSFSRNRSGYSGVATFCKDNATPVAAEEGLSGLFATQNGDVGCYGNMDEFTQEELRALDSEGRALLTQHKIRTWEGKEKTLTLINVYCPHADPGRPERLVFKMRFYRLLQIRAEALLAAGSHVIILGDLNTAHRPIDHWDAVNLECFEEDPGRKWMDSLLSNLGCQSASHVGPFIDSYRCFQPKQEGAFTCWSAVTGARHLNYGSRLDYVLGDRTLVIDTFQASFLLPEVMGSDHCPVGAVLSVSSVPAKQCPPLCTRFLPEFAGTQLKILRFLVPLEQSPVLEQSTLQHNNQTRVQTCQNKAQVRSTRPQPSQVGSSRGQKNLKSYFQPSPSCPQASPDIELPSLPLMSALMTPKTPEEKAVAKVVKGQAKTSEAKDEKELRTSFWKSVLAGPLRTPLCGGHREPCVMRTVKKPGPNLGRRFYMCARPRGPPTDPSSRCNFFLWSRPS
Assay: co-IP; lysate (M-PER) of transfected HEK293 cells, 48 h after transfection; HA-APE2 held on anti-HA magnetic beads, 30 °C for 30 min; partners found by Western blot

Row | binding | Substance
1 | binds | Hsp90 (human (endogenous in HEK293))
2 | binds | Hsp70 (human (endogenous in HEK293))

These are yes or no findings as the source states them, for the method shown. In cells and extracts the contact can be indirect. A result given as binding can be weak or reduced; the word gives no strength. Tags and fused reporters may be left off the sequences shown.
